# Data: the supplement of paper PMC6411743
# ± gives the standard deviation of the averaged measurements. Only a part is listed here, and it is no random draw.
# Legend:
# Assay in all cases: NP40-soluble protein abundance relative to vehicle (solubility fold change) (ratio); higher = more soluble protein in presence of AMP-PNP
# [1] = target: T1, UniProt Q96BZ9 and related entries
# T1 sequence (whole entry): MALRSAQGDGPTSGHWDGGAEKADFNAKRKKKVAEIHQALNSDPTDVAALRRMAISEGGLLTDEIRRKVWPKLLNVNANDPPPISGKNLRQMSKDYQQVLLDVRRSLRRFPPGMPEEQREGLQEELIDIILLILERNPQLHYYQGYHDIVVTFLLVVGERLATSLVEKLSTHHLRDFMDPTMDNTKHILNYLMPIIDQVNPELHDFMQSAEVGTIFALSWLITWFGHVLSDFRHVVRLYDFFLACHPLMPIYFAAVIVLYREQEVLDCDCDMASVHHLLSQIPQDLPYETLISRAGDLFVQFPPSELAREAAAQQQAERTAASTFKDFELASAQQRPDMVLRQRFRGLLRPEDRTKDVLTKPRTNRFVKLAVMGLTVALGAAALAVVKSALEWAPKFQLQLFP
# Summary of the method: (§1)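 Each value is a fold change relative to the detergent-processed vehicle, calculated per replicate from vsn-normalised intensities. Jurkat crude lysate received eight concentrations (0.1 to 10 mM) for 10 min at room temperature and 3 min at 37 °C, then was solubilised in 0.8% NP40 with benzonase (60 min, 4 °C). The ultracentrifuged supernatant was TMT-labelled and run by LC-MS/MS in three independent experiments.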
# [2] = target: T2, UniProt Q96F46 and related entries
# T2 sequence (whole entry): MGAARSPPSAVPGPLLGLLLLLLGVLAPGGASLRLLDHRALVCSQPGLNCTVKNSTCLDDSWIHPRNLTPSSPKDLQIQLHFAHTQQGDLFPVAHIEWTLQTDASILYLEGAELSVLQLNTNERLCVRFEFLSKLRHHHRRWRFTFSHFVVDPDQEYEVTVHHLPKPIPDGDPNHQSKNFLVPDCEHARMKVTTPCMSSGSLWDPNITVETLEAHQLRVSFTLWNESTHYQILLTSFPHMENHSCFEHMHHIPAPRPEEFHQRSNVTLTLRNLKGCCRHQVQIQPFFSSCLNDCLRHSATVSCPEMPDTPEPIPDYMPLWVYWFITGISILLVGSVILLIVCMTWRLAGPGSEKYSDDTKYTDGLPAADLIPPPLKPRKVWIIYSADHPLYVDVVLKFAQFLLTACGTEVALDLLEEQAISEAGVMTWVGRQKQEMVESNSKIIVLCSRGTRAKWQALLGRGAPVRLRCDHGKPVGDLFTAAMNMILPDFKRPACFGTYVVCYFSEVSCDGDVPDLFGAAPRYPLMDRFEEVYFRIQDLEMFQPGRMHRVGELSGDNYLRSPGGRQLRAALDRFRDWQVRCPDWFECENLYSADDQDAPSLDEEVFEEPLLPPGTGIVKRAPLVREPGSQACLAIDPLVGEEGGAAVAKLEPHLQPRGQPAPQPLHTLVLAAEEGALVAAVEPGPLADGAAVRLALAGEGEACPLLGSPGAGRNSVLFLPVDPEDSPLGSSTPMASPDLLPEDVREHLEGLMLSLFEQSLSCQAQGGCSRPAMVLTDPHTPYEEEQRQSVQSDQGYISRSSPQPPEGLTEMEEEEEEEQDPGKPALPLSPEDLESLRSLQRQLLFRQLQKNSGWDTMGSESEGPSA
# Summary of the method: as §1
# [3] = target: T3, UniProt Q96G25 and related entries
# T3 sequence (whole entry): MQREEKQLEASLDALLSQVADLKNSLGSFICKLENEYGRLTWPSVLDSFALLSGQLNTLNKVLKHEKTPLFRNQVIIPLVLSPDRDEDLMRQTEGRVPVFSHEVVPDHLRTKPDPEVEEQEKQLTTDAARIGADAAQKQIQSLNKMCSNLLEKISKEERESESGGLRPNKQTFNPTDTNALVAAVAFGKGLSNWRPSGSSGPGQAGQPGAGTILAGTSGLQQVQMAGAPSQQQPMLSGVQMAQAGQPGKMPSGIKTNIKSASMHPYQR
# Summary of the method: as §1
# UniProt Q96GS4 = target: T4, UniProt Q96GS4
# T4 sequence (whole entry): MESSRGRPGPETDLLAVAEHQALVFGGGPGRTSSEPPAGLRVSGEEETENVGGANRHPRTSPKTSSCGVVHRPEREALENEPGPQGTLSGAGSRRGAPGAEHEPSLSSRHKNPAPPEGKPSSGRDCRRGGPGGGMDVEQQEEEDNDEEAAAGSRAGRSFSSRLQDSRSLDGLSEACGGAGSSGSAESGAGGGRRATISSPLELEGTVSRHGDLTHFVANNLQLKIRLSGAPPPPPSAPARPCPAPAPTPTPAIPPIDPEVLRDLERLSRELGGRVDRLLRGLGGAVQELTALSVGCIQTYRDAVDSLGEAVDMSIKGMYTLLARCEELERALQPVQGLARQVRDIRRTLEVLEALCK
# Summary of the method: as §1
# [4] = target: T5, UniProt Q96I15 and related entries
# T5 sequence (whole entry): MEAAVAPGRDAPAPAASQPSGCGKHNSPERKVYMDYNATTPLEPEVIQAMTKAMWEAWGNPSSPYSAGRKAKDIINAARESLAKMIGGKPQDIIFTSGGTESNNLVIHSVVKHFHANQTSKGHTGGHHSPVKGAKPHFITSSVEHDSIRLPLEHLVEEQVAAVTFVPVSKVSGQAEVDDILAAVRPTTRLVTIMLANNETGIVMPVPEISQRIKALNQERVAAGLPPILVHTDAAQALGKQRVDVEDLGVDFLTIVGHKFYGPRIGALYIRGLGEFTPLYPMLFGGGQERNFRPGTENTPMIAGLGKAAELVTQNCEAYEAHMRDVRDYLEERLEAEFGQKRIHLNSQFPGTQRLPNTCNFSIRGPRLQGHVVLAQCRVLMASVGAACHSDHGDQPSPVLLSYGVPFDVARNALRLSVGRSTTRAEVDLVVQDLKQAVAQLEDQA
# Summary of the method: as §1
structure (smiles),measurement,setting,value
Nc1ncnc2c1ncn2[C@@H]1O[C@H](COP(=O)(O)OP(=O)(O)NP(=O)(O)O)[C@@H](O)[C@H]1O [adenylyl imidodiphosphate],NP40-soluble protein abundance,[1]; concentration: 1mM,1.01 ± 0.032
same,NP40-soluble protein abundance,[1]; concentration: 2mM,1.02 ± 0.037
same,NP40-soluble protein abundance,[1]; concentration: 4mM,1.02 ± 0.021
same,NP40-soluble protein abundance,[1]; concentration: 6mM,1.02 ± 0.016
same,NP40-soluble protein abundance,[1]; concentration: 8mM,1.01 ± 0.029
same,NP40-soluble protein abundance,[1]; concentration: 10mM,1.02 ± 0.021
same,NP40-soluble protein abundance,[2]; concentration: 1mM,1 ± 0.015
same,NP40-soluble protein abundance,[2]; concentration: 2mM,0.981 ± 0.03
same,NP40-soluble protein abundance,[2]; concentration: 4mM,1 ± 0.029
same,NP40-soluble protein abundance,[2]; concentration: 6mM,0.98 ± 0.017
same,NP40-soluble protein abundance,[2]; concentration: 8mM,0.966 ± 0.022
same,NP40-soluble protein abundance,[2]; concentration: 10mM,0.978 ± 0.011
same,NP40-soluble protein abundance,[3]; concentration: 1mM,0.991 ± 0.021
same,NP40-soluble protein abundance,[3]; concentration: 2mM,1.03 ± 0.065
same,NP40-soluble protein abundance,[3]; concentration: 4mM,1.01 ± 0.027
same,NP40-soluble protein abundance,[3]; concentration: 6mM,0.965 ± 0.079
same,NP40-soluble protein abundance,[3]; concentration: 8mM,0.957 ± 0.068
same,NP40-soluble protein abundance,[3]; concentration: 10mM,0.97 ± 0.03
same,NP40-soluble protein abundance,UniProt Q96GS4; concentration: 1mM,1 ± 0.031
same,NP40-soluble protein abundance,UniProt Q96GS4; concentration: 2mM,0.992 ± 0.015
same,NP40-soluble protein abundance,UniProt Q96GS4; concentration: 4mM,1.02 ± 0.027
same,NP40-soluble protein abundance,UniProt Q96GS4; concentration: 6mM,0.9651 ± 0.0084
same,NP40-soluble protein abundance,UniProt Q96GS4; concentration: 8mM,0.978 ± 0.013
same,NP40-soluble protein abundance,UniProt Q96GS4; concentration: 10mM,1 ± 0.013
same,NP40-soluble protein abundance,[4]; concentration: 1mM,0.998 ± 0.018
same,NP40-soluble protein abundance,[4]; concentration: 2mM,0.964 ± 0.011
same,NP40-soluble protein abundance,[4]; concentration: 4mM,0.982 ± 0.029
same,NP40-soluble protein abundance,[4]; concentration: 6mM,0.978 ± 0.018
same,NP40-soluble protein abundance,[4]; concentration: 8mM,0.988 ± 0.047
same,NP40-soluble protein abundance,[4]; concentration: 10mM,0.977 ± 0.031

# Given with bars between the fields: part of the list above.
structure (smiles) | measurement | setting | value
Nc1ncnc2c1ncn2[C@@H]1O[C@H](COP(=O)(O)OP(=O)(O)NP(=O)(O)O)[C@@H](O)[C@H]1O [adenylyl imidodiphosphate] | NP40-soluble protein abundance | [2]; concentration: 4mM | 1 ± 0.029
same | NP40-soluble protein abundance | UniProt Q96GS4; concentration: 2mM | 0.992 ± 0.015
